Measured values from PubChem BioAssay (NCATS).
Several values for one entry are separate records, joined by “and”; a condition that tells them apart may be missing. Equal values may be shown once. Inconclusive results, whose numbers are uncertain, are shown with a selection of clear calls. For some of these results: A potency beside an inconclusive call is a rough fit, not a confirmed value. Activity calls are given as the source filed them. Unless noted, calls come from the whole dose curve; as a rule, active = well fitted curve in the direction sought with a large enough effect; inconclusive = small, poorly fitted or top-dose-only effect, or another doubt; inactive = no such curve, though single readings can be large; an effect the other way counts as inactive or inconclusive.

Protein sequences, listed by entry. Tags and fused reporters are not part of them. Lines headed by an entry give the natural chain unless they say otherwise; changes in a name come on top. Residues count along the entry.
UniProt Q8WZA2: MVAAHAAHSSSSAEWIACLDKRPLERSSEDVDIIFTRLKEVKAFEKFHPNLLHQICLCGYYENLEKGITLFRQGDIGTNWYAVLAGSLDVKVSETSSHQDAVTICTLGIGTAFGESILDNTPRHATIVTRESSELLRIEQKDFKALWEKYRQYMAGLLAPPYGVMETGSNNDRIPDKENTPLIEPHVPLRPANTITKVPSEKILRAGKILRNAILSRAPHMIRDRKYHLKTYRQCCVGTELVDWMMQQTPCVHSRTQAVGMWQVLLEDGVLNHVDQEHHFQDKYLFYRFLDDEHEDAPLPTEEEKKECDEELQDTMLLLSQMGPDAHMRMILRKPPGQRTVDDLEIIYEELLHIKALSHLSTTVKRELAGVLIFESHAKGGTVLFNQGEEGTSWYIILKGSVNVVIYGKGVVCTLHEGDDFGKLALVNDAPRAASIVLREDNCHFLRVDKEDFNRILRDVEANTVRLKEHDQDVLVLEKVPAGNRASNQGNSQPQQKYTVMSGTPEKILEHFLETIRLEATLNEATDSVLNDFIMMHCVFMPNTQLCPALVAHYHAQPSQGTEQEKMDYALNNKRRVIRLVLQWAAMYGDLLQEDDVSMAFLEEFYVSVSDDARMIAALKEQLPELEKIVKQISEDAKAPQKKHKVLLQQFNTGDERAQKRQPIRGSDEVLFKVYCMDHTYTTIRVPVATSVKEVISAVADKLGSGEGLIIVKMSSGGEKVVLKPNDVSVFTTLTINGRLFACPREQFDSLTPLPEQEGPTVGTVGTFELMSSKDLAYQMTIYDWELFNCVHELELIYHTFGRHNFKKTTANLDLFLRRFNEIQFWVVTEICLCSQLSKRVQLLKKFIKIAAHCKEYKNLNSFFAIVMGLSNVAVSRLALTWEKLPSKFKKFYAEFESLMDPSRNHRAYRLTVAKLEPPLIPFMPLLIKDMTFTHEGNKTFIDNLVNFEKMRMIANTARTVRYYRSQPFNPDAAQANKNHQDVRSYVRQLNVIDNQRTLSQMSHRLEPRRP
UniProt P02791, 2-175 limits assumed: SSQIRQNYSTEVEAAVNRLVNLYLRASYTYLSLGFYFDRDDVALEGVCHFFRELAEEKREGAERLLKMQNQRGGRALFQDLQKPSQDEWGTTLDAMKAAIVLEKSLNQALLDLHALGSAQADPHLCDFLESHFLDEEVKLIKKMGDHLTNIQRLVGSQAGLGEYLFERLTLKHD
UniProt P05177, whole entry, looked up: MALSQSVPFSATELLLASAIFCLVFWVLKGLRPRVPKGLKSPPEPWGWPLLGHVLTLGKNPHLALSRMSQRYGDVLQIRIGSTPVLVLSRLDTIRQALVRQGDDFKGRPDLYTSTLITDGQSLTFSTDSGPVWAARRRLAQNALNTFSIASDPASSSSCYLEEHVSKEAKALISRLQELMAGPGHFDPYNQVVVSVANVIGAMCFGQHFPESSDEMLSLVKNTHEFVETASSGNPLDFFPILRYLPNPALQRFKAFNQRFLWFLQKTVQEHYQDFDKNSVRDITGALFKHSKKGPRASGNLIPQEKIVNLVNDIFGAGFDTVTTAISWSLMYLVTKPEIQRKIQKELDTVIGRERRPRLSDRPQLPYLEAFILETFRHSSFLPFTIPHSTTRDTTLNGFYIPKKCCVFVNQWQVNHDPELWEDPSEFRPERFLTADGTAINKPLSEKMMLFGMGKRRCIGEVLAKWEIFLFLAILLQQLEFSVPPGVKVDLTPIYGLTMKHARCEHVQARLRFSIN
UniProt Q07343: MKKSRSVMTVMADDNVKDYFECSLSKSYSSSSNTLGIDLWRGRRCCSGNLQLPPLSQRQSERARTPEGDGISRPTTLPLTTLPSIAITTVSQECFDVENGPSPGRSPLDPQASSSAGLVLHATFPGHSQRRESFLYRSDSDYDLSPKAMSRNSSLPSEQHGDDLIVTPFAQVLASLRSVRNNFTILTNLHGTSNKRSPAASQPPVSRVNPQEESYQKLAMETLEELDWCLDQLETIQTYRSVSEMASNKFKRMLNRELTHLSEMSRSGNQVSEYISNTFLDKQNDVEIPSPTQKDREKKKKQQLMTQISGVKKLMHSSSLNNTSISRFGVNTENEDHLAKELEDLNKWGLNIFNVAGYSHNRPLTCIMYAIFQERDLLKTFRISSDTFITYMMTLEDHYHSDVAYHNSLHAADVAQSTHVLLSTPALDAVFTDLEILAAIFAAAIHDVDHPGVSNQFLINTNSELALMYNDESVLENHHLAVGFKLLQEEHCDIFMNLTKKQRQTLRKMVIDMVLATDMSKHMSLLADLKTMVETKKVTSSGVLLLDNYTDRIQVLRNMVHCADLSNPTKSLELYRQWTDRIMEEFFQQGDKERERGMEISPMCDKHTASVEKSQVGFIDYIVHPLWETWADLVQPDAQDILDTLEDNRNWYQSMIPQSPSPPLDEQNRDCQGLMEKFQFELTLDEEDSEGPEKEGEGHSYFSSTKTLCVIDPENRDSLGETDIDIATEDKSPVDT
UniProt P33261, whole entry, looked up: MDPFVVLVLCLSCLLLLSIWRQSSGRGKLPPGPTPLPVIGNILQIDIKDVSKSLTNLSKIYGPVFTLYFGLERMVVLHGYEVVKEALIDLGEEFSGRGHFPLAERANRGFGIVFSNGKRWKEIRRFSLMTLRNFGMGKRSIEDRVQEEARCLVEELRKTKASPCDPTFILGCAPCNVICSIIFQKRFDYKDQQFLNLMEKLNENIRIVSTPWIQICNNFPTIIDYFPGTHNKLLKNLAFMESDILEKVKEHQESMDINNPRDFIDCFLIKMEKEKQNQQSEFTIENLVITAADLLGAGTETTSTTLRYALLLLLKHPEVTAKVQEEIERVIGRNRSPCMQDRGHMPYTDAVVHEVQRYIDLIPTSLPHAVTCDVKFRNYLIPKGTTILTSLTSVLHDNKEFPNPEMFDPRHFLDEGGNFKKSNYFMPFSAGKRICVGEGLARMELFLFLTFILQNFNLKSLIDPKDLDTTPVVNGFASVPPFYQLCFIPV
UniProt P08482: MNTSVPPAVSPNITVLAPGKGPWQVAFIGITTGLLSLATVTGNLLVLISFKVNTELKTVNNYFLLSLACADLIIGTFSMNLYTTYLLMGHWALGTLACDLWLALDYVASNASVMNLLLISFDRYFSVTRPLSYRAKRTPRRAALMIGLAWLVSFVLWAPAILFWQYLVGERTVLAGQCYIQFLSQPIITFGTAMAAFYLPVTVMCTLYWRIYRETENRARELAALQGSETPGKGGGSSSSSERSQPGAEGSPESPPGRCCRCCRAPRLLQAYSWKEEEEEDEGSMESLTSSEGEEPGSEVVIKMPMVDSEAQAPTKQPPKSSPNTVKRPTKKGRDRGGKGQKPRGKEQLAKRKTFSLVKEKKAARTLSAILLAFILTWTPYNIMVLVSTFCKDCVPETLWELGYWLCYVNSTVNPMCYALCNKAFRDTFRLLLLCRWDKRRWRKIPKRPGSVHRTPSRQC
UniProt P54132: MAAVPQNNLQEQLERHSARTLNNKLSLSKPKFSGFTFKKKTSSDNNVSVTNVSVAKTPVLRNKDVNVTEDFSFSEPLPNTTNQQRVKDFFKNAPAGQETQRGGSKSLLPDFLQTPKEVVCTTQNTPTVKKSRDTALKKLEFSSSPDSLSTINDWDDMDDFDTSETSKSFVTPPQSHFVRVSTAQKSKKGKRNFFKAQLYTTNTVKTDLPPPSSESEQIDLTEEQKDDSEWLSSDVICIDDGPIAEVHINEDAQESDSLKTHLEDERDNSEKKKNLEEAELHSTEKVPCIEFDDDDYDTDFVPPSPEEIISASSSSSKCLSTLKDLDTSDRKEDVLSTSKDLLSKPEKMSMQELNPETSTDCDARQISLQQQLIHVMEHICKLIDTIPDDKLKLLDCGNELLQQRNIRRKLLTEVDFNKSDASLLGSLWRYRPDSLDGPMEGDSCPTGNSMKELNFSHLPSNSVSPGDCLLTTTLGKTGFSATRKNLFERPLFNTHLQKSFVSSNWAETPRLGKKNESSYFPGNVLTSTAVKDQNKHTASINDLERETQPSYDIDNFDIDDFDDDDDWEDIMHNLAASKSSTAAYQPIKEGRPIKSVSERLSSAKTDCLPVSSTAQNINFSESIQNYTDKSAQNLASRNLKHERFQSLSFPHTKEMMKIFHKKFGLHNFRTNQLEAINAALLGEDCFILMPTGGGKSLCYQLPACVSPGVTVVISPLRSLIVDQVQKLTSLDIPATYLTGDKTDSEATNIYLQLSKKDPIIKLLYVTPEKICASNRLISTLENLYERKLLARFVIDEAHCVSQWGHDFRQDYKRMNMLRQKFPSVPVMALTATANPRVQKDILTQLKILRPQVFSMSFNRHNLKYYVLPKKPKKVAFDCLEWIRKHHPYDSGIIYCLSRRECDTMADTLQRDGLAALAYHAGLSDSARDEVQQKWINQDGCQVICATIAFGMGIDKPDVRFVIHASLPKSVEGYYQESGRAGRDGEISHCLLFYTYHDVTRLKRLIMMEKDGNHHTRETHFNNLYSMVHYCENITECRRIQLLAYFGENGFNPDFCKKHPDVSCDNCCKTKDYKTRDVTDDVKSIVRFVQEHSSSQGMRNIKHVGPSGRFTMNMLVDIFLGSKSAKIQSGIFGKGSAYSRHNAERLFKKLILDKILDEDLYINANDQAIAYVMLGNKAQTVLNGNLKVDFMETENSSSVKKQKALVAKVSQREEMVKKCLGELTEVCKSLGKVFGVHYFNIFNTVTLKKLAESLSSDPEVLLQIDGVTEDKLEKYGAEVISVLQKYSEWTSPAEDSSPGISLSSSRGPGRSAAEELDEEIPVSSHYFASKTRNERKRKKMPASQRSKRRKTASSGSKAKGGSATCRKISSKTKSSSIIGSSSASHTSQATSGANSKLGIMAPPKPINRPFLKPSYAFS
UniProt O15648: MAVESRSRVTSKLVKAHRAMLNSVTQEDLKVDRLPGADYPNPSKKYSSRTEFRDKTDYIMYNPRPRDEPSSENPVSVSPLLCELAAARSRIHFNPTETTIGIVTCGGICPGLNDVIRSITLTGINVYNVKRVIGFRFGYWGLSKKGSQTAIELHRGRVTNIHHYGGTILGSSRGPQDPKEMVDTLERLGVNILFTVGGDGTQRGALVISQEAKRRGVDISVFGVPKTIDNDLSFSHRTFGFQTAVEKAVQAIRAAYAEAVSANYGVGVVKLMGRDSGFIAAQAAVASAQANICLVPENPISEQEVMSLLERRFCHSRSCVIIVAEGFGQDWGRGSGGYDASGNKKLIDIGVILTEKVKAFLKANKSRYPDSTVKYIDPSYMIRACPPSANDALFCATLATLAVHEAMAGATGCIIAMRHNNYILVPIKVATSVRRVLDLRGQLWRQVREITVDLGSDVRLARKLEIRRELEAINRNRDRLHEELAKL
UniProt P83916, whole entry, looked up: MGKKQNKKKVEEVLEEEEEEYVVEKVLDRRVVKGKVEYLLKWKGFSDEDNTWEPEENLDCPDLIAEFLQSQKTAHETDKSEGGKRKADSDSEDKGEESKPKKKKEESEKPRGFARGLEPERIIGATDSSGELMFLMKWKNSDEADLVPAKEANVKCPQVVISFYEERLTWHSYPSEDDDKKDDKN
UniProt P21728, whole entry, looked up: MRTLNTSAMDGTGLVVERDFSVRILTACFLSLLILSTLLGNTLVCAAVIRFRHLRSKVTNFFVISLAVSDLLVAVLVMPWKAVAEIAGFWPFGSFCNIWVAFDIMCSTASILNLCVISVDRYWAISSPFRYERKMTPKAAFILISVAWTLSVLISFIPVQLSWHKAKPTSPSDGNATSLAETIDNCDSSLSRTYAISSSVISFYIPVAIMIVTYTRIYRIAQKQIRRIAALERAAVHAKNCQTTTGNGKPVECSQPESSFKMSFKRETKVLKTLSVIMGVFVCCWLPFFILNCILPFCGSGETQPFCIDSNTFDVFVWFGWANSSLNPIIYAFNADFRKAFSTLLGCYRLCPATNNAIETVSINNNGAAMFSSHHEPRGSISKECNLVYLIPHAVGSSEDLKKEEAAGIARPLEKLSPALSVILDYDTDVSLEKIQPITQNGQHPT

Legend:
[1] = molecular target: Rap guanine nucleotide exchange factor 3 (Homo sapiens) (UniProt O95398); experiment: Counterscreen qHTS for agonist of cAMP-regulated guanine nucleotide exchange factor 3 (EPAC1) (AID 1645889); details: EPAC1 Rap1B-BODIPY-GDP exchange, fluorescence; activation: at 154 µM (top of the series) unless noted; note: nearly all actives have a fitted effect of over 40% in size; note: potency is the fitted concentration of half-maximal effect; for activation: % of control where 0% means no effect
In short: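 Rap1B–BODIPY-GDP (250 nM) with 50 uM GDP; compounds pin-transferred to 9.74 nM–152 uM final (activator) or from 7.32 nM upwards (inhibitor). Fluorescence Ex/Em 480/540 nm read at 5 and 30 min, then after adding cAMP or buffer, at room temperature.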

[2] = molecular target: Rap guanine nucleotide exchange factor 4 (Homo sapiens) (UniProt Q8WZA2); experiment: Confirmatory qHTS for antagonist of cAMP-regulated guanine nucleotide exchange factor 4 (EPAC2) (AID 1645885); details: activity change, negative = inhibition: at 114 µM (top of the series) unless noted; note: potency is the fitted concentration of half-maximal effect; nearly all actives have a fitted effect of over 25% in size
[3] = NCATS anti-infectives library activity on the primary C. elegans qHTS viability assay (AID 1745855; calls by dose curve; note: potency is the fitted concentration of half-maximal effect)
In short: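 GFP read-out by 488 nm laser cytometry at day 0, 3 and 7, gated on object perimeter, area and peak intensity, scored viability of PE254-GFP-FLuc worms exposed to compound in S medium with bacterial capsules at 21 °C.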

[4] = molecular target: Endonuclease 4 (Escherichia coli (strain K12)) (UniProt P0A6C1); experiment: Counterscreen for APE1 Inhibitors: qHTS Validation Assay for Inhibitors of Endonuclease IV (AID 1708); note: potency is the fitted concentration of half-maximal effect; for activity change, negative = inhibition: % is set by controls: 0 for no effect and ±100 for the full control effect
In short: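 Conditions: 2 nM enzyme, 50 nM TAMRA/BHQ-2 substrate, pH 7.5 Tris buffer with 2 mM MgCl2, RT. Compound preincubation 15 min; readout three fluorescence reads 60 s apart, third-minus-first.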

[5] = qHTS for differential inhibitors of proliferation of Plasmodium falciparum line 3D7 (AID 1876); note: potency is the fitted concentration of half-maximal effect
[6] = qHTS for differential inhibitors of proliferation of Plasmodium falciparum line D10 (AID 1877);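 note: parasites grown with compound for 72 h before DNA staining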; note: potency is the fitted concentration of half-maximal effect;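 for activity change, negative = inhibition: plate controls were vehicle wells for no effect and reference inhibitor wells for full effect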
[7] = qHTS for differential inhibitors of proliferation of Plasmodium falciparum line HB3 (AID 1886); details: Potency: Plasmodium falciparum HB3 proliferation inhibition;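 note: potency is the fitted concentration of half-maximal effect; parasites grown with compound for 72 h before SYBR Green readout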
[8] = qHTS for Inhibitors of ATXN expression: Validation of Cytotoxic Assay (AID 588349); note: potency is the fitted concentration of half-maximal effect
In short: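 Cytotoxicity counter-screen: ATP-based luminescent viability (CellTiter Glo) after 72 hr exposure of HEK293 cells to a compound titration at 37 degrees C.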

[9] = qHTS for Inhibitors of ATXN expression: Validation (AID 588378); note: potency is the fitted concentration of half-maximal effect; nearly all actives have a fitted effect of over 75% in size
In short: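 Luciferase luminescence (Bright-Glo) from an ATXN2-FFLuc HEK293 line after 24 h compound exposure at 37 °C, preceded by a CellTiter-Fluor fluorescence viability read. Serial dilutions of a reference ATXN2 inhibitor and a luciferase inhibitor served as controls.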

[10] = qHTS Assay for Identifying Gametocytocidal Compounds (AID 743244); note: potency is the fitted concentration of half-maximal effect; details: P. falciparum 3D7 stage III-V gametocytes, alamarBlue, 72 h; max response: stronger effect = lower value
In short: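 Fluorescence at Ex 525/Em 598 nm, recorded 24 h after alamarBlue addition, reports residual metabolic activity of 3D7 gametocytes (stages III–V) following 72 h compound exposure at 37 °C, 5% CO2.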

[11] = molecular target: Ferritin light chain (Equus caballus) (UniProt P02791); experiment: qHTS Validation Assay for Identification of Novel General Anesthetics (AID 2323); note: potency is the fitted concentration of half-maximal effect; for activity change, negative = inhibition: % is set by controls: 0 for no effect and ±100 for the full control effect
In short: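 Competitive displacement of the profluorescent anesthetic 1-AMA (50% saturated, PBS) from 10 uM apoferritin, 10 min, room temperature. Activity is normalized 380/535 nm fluorescence; concentration-response fitted with a four-parameter Hill equation.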

[12] = molecular target: Cytochrome P450 1A2 (Homo sapiens) (UniProt P05177); experiment: p450-cyp1a2 (AID 410; calls by dose curve; note: potency is the fitted concentration of half-maximal effect)
In short: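 Luminescent demethylation readout: Luciferin-ME (100uM, equal to Km) turned over by 20nM CYP1A2 for 60 min at room temperature after NADPH regeneration addition, following 10 min compound preincubation. Normalization used 57 uM furafylline as full inhibition.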

[13] = NFAT Signaling Pathway (AID 444; active = well fitted curve in either direction with a large enough effect, not every such curve was filed as active; inconclusive = small, poorly fitted or top-dose-only effect, or another doubt;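 note: carbachol stimulus at about its EC50 of 1 µM final; % is set by controls: 0 for no effect and ±100 for the full control effect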); details: Jurkat NFAT-bla M1, carbachol, beta-lactamase ratio, 5 h; at 7.69 µM (top of the series) unless noted
In short: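 Jurkat cells with NFAT-driven β-lactamase reporter and co-expressed M1 receptor, stimulated with carbachol (final 1 uM, ~EC50), compound titration, 5 h at 37 °C. CCF4 loaded 1 h at RT; 460/530 nm ratio gave %activity and AC50.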

[14] = molecular target: Mitogen-activated protein kinase 10 (Mus musculus) (UniProt Q61831); experiment: JNK3 AlphaScreen Assay (AID 530; active = well fitted curve in either direction with a large enough effect, not every such curve was filed as active; inconclusive = small, poorly fitted or top-dose-only effect, or another doubt;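 note: kinase came from lysate of stimulated human HepG2 cells; potency is the fitted concentration of half-maximal effect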); details: JNK3 lysate, c-Jun phosphorylation; activity change, negative = inhibition: at 57.1 µM (top of the series)
In short: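 Activity was read by AlphaScreen after JNK3-containing HepG2 lysate (cytokine pre-activated) phosphorylated biotinylated GST-cJun with 10 uM ATP at room temperature. Phospho-Ser73 cJun antibody with Protein-A acceptor beads provided detection.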

[15] = molecular target: 3',5'-cyclic-AMP phosphodiesterase 4B (Homo sapiens) (UniProt Q07343); experiment: qHTS Assay for Inhibitors of PDE-IV (AID 607; active = well fitted activation curve with a large enough effect in the main read-out, with a control signal flat, not every such curve was filed as active; inconclusive = small, poorly fitted or top-dose-only effect, or effect the other way, or a change in a side signal; note: potency is the fitted concentration of half-maximal effect); details: HEK293 ACTOne CNG channel cells, membrane potential fluorescence; activation (PDE inhibition): at 22.9 µM (top of the series)
In short: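 Cell-based read-out of cAMP via a modified cyclic nucleotide-gated channel and membrane potential dye (535/590 nm) in HEK293 cells expressing PDE4 endogenously. Compounds tested up to 22.9 uM final; 100 uM RO 20-1724 reference.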

[16] = qHTS Assay for Identification of Small Molecule Antagonists for NFkB Signaling Pathway (AID 895; active = well fitted inhibition curve with a large enough effect in the signal ratio, with a control signal flat, not every such curve was filed as active; inconclusive = small, poorly fitted or top-dose-only effect, or effect the other way, or a change in a side signal; the % refers to the signal ratio; note: % is set by controls: 0 for no effect and ±100 for the full control effect); details: NFkB beta-lactamase reporter cells, FRET ratio 460/530; activity change, negative = inhibition: at 38.3 µM (top of the series) unless noted
In short: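 ME-180 NFkB-bla cells (beta-lactamase under NFkB response element), plated overnight, treated with compound then 10 pM TNF alpha (about EC50) for 5 hrs at 37 C. LiveBLAzer FRET read at 460/530 nm emission, 405 nm excitation.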

[17] = molecular target: Cytochrome P450 2C19 (Homo sapiens) (UniProt P33261); experiment: qHTS Assay for Inhibitors and Substrates of Cytochrome P450 2C19 (AID 899); note: potency is the fitted concentration of half-maximal effect; nearly all actives have a fitted effect of over 60% in size
In short: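 5 nM human CYP2C19 with 10uM Luciferin-H EGE (at KM) in 50mM KPO4, compound preincubated 10 min at 37C, then NADPH regeneration for 60 min at 37C. Luciferin read by luminescence after detection reagent; normalized to 57uM ketoconazole as full inhibition.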

[18] = qHTS Assay for Identification of Small Molecule Antagonists for Thrombopoietin (TPO) Signaling Pathway (AID 918); details: TPO-dependent cell signaling reporter, antagonist mode; activity change, negative = inhibition: at 38.5 µM (top of the series)
In short: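 Inhibition read as reduced luciferase luminescence after 24 h at 37 C in IL-3-deprived Ba/F3 cells carrying human TPO receptor and GPIIb-promoter reporter, stimulated with 26 pM TPO (final, its EC50) alongside compound.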

[19] = molecular target: Muscarinic acetylcholine receptor M1 (Rattus norvegicus) (UniProt P08482); experiment: qHTS Assay for Antagonists of Acetylcholine Muscarinic M1 Receptor: Measurement of IP-One Response (AID 944); note: nearly all actives have a fitted effect of over 75% in size
[20] = qHTS for differential inhibitors of proliferation of Plasmodium falciparum line Dd2 (AID 1882); details: Potency: Plasmodium falciparum Dd2 proliferation inhibition;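 note: plate controls were DMSO vehicle for no effect and 0.29 µM artemisinin for full effect; nearly all actives have a fitted effect of over 65% in size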
In short: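 SYBR Green DNA fluorescence (ex 485, em 535 nm) after overnight lysis quantifies parasite growth; compound exposure lasted 72 h at 37 C on infected red cells at 2.5% hematocrit, 0.3% parasitemia (final). Artemisinin 0.29 uM and vehicle wells define normalization.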

[21] = molecular target: RecQ-like DNA helicase BLM (Homo sapiens) (UniProt P54132); experiment: qHTS Validation Assay for Inhibitors of Bloom's syndrome helicase (BLM) (AID 2364); note: potency is the fitted concentration of half-maximal effect
In short: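 50 nM BLM preincubated 15 min at room temperature with compound in pH 8.0 Tris buffer containing 2.5 ug/ml poly(dI-dC); started with 200 nM TAMRA/BHQ-2 forked duplex and 2 mM ATP (final). Unwinding read as TAMRA fluorescence increase, two reads 2 h apart.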

[22] = molecular target: ATP-dependent 6-phosphofructokinase (Trypanosoma brucei brucei) (UniProt O15648); experiment: qHTS Validation Assay to Find Inhibitors of T. brucei phosphofructokinase (AID 485368); note: potency is the fitted concentration of half-maximal effect
In short: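 ADP-Glo luminescence, two-step: residual ATP depleted, then ADP converted to ATP for luciferase. Enzyme 1.25 nM, F6P 0.5 mM, ATP 0.1 mM, pH 8.0 TEA buffer, 45 min RT. Curves fitted and classed by quality and efficacy.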

[23] = molecular target: Chromobox protein homolog 1 (Homo sapiens) (UniProt P83916); experiment: qHTS Validation Assay for Inhibitors of HP1-beta Chromodomain Interactions with Methylated Histone Tails (AID 488953);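 note: loss of AlphaScreen luminescence from HP1-beta binding biotinylated H3K9me3 peptide; % is set by controls: 0 for no effect and ±100 for the full control effect; nearly all actives have a fitted effect of over 50% in size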
In short: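 AlphaScreen proximity signal from streptavidin donor and nickel chelate acceptor beads (final 10 ug/mL) after 30 min dark incubation. Compounds had 30 min at room temperature with preformed complex of 50 nM HP1-beta and 50 nM b-H3(1-18)K9me3 in PBS pH 7.4 with 0.01% Tween-20.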

[24] = molecular target: D(1A) dopamine receptor (Homo sapiens) (UniProt P21728); experiment: HTS Assay for Allosteric Agonists of the Human D1 Dopamine Receptor: Primary Screen for Potentiators (AID 488982); note: potency is the fitted concentration of half-maximal effect
In short: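 Tetracycline-induced HEK293 Trex D1 cells with forced coupling to calcium, loaded with no-wash calcium dye; kinetic fluorescence read 180 s after compound addition for agonism, then a further 180 s after an EC20 dopamine challenge for potentiation.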

COc1ccc(OCC(=O)N2CCN(CC3CC4C=CC3C4)CC2)cc1 (stereo unspecified)
inactive: activation [1] 5.29% [at 30.8 µM]

O=c1oc2ccccc2c(O)c1C(c1ccc([N+](=O)[O-])cc1)c1c(O)c2ccccc2oc1=O
inconclusive: Potency [2] 9.53 µM [inhibitor, partial curve, poor fit] | Potency [1] 3.98 µM [activator, full curve, poor fit]

C[C@@H](N)C(=O)N[C@@H](CO)C(=O)N[C@H](C(=O)N[C@H](C(=O)N[C@H](C(=O)N[C@@H](CC(N)=O)C(=O)N[C@@H](Cc1ccc(O)cc1)C(=O)N[C@H](C(N)=O)[C@@H](C)O)[C@@H](C)O)[C@@H](C)O)[C@@H](C)O
inconclusive: Potency [3] 23 µM [inhibitor, single point]

CN1[C@@H](CC(=O)c2ccccc2)CCC[C@H]1C[C@H](O)c1ccccc1
inconclusive: Potency [4] 1.12 µM [inhibitor, full curve, poor fit] | Potency [5] 17.8 µM [inhibitor, single point] | Potency [6] 11.2 µM [inhibitor, partial curve] | Potency [7] 15.8 µM [inhibitor, partial curve] | Potency [8] 28.2 µM [cytotoxic, single point] | Potency [9] 22.4 µM [inhibitor, single point] | Potency [10] 35.5 µM [inhibitor, partial curve] and 5.62 µM [inhibitor, single point]

N.N.N.N.N.N.N.N.N.N.N.N.N.N.O.O.[Cl-].[Cl-].[Cl-].[Cl-].[Cl-].[Cl-].[Ru].[Ru].[Ru]
active: Potency [4] 28.2 µM | Potency [11] 25.1 µM

O=C1CCCN1CC#CCN1CCCC1
active: Potency [17] 0.158 µM
inconclusive: Potency [12] 31.6 µM [decreasing] | activity change, negative = inhibition [13] 16% [activator] [at 38 µM] | Potency [14] 0.02 µM [activator, full curve, poor fit] | Potency [15] 0.755 µM [inhibitor, full curve, poor fit] | activity change, negative = inhibition [18] -13.7% [phenotype inactive] | Potency [21] 0.0251 µM [inhibitor, full curve, poor fit] | Potency [22] 8.49 µM [falling, single point] | Potency [24] 2.91 µM [activator, single point]
inactive: Potency [16] | Potency [19] | Potency [4] | Potency [5] | Potency [6] | Potency [20] | Potency [11] | Potency [23] | Potency [8]
